Library screen at single concentrations

The chains behind the UniProt entries cited, without tags or fusion partners. Residues count along the entry.
UniProt I6X8D2, whole entry: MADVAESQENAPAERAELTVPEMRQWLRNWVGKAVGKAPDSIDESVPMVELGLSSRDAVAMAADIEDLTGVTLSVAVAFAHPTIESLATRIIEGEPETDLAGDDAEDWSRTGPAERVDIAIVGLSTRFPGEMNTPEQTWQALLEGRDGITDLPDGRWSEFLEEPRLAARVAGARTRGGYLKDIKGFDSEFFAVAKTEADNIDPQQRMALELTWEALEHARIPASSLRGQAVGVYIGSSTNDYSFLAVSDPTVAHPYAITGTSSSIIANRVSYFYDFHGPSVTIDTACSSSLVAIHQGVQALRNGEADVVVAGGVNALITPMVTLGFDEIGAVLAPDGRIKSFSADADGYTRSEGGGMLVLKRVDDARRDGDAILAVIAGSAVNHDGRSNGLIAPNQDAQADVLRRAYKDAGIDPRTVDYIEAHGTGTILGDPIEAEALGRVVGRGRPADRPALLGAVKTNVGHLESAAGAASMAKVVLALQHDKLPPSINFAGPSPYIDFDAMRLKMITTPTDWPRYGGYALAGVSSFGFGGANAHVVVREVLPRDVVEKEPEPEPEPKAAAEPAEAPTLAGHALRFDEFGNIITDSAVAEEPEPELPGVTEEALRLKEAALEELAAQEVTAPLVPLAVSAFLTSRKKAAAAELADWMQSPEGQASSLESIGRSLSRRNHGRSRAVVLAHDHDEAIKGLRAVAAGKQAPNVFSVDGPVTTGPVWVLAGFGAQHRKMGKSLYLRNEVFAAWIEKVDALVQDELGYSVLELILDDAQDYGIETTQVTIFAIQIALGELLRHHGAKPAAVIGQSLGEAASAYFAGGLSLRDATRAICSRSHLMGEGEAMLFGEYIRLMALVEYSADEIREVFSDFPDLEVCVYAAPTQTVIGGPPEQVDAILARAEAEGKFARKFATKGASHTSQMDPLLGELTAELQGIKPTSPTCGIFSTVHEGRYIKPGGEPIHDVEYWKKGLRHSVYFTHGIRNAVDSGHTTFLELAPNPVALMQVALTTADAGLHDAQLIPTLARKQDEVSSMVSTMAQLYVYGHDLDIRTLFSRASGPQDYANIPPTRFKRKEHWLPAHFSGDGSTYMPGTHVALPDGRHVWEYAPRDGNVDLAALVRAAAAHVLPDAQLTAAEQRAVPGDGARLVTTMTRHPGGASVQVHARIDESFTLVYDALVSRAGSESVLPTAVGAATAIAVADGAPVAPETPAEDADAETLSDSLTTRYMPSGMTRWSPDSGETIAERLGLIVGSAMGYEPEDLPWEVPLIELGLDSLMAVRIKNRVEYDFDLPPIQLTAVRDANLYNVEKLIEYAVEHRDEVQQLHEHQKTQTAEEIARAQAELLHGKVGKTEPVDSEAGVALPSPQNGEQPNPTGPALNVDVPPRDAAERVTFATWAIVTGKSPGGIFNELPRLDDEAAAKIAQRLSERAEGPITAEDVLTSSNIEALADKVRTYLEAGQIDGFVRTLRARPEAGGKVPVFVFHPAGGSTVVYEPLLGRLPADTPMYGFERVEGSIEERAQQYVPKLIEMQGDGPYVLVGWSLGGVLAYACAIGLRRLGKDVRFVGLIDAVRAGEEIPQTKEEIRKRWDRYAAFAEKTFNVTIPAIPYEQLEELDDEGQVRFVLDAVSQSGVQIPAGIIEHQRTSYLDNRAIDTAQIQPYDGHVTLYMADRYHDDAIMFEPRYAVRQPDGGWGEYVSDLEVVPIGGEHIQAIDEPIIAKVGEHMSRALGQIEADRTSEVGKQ
UniProt Q8IDJ8, 1-583: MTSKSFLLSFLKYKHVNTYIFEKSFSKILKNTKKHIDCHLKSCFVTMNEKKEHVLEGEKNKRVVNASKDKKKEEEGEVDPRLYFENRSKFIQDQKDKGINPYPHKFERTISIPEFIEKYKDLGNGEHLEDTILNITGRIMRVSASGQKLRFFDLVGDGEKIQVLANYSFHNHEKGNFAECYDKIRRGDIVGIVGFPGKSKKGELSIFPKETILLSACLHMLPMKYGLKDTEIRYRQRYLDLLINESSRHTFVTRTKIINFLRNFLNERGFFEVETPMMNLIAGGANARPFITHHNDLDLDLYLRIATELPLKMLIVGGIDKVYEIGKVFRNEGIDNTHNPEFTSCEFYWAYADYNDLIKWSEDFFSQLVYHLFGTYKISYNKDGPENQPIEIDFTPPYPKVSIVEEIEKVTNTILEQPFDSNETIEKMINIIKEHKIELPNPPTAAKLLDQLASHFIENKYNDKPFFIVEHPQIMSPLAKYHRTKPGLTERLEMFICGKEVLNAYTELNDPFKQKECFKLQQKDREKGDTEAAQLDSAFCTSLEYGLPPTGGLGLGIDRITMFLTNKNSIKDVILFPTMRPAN
UniProt P9WNZ1, whole entry: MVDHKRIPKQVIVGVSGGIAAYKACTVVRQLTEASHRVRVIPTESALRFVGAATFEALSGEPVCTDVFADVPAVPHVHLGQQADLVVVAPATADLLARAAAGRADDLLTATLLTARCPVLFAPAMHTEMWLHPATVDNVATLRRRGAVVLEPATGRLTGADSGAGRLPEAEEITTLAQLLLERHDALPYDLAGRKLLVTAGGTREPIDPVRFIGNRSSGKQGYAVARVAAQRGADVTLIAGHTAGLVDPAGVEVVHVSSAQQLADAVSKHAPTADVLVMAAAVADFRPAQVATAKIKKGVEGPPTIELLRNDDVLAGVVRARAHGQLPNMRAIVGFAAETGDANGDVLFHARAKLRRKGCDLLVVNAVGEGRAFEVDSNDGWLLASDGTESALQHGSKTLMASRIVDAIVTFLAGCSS

A: 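Polyketide synthase Pks13, Mycobacterium tuberculosis (UniProt I6X8D2). Enzyme assay of the thioesterase domain of polyketide synthase 13; the read-out is not stated. Concentration: 30 µM. The record gives no direction; the compounds picked for IC50 retests had high values, so higher reads as stronger inhibition. About 67,000 compounds were tested under these conditions; 0.46% (about 300) showed 50% or more at least once.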
B: 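Enzyme assay of the cytosolic lysyl-tRNA synthetase in 384-well plates, read by luminescence. Target: Lysine-tRNA ligase, Plasmodium falciparum 3D7 (UniProt Q8IDJ8). Concentration: 30 µM. Direction is inferred from only a few compounds that gave an IC50; most scored high, so higher reads as stronger inhibition. About 69,000 compounds were tested under these conditions; 0.071% (about 49) showed 50% or more at least once.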
C: 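Enzyme assay of CoaBC with a phosphate dye (Biomol Green) read at 650 nm. Target: Coenzyme A biosynthesis protein CoaBC, Mycobacterium tuberculosis (UniProt P9WNZ1). Concentration: 30 µM. Higher reads as stronger inhibition, judged from the few compounds that gave an IC50. Most strong results did not repeat in a second test. Of about 67,000 compounds tested this way, about 40 (0.06%) reached 50% or more in at least one test.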

Each number is a percent effect as filed.
How 0% and 100% were set is not recorded. Most values in the screen are low, and negative values occur.
Compounds were drawn at random from those tested, without regard to their results.
A dash means the value is not listed here; it may have been measured.

| SMILES | A | B | C |
|---|---|---|---|
| `Cc1cc(Br)cnc1N(C)CC1CCOC1` (configuration not stated) | -8.691 | -1.126 | -3.367 |
| `N#CCCN(Cc1cccnc1)C(=O)c1ccc(OCC2CC2)cc1` | -27.24 | 0.6787 | 3.688 |
| `Cc1nsc(NC2CCOC3(CCCC3)C2)n1` (configuration not stated) | -12.79 | 3.388 | 7.127 |
| `CCc1cc(N(C)Cc2[nH]nc3c2CCC3)nc(N2CCOCC2)n1` | -14.71 | 6.149 | 5.289 |
| `CCC1c2ccccc2CCN1CCCS(C)(=O)=O` (configuration not stated) | -10.75 | -1.342 | 1.401 |
| `O=C(c1cccnc1Oc1ccccc1)N1CCCn2ncnc21` | -3.647 | 1.618 | 0.9724 |
| `O=C(C1CCCC1)N1CCOc2cccc(F)c21` | -7.715 | 3.043 | -12.35 |
| `CCOCC(=O)N1CCC2(CC1)COCCN2CCOC` | 8.938 | 4.674 | -3.074 |
| `Cc1ccc(C)c(C(=O)NCC(c2cccn2C)N2CCCCCC2)c1` (configuration not stated) | -14.07 | 1.833 | 4.611 |
| `Cc1ccc(CNc2cc(C(=O)N3CCOCC3)nc(C)n2)cc1` | -5.12 | 8.941 | 8.84 |
| `CC(C)NC(=O)[C@@H]1CCO[C@@H]2CCN(c3ncccn3)C[C@H]21` | -7.689 | -0.5933 | 3.173 |
| `Cc1nc[nH]c1CN1CCc2nc3scc(C)c3c(=O)n2CC1` | -3.614 | -0.2688 | 0.7299 |
| `CN1C[C@@H](c2cccc(F)c2)[C@H]2[C@H]1CCCCCN2C(=O)C1CC1` | -13.27 | 1.224 | -6.833 |
| `COc1ccc(Oc2cncc(C3CCCN3C(C)=O)n2)cc1` (configuration not stated) | 27.34 | -5.603 | -0.8333 |
| `CCN(CCC(=O)OC)C(=O)c1cccc(Cn2nc(C)cc2C)c1` | -3.623 | 0.7041 | 0.1255 |
| `CC1CN(S(=O)(=O)c2ccc(F)cc2)c2cccnc2O1` (configuration not stated) | -5.151 | 4.289 | 8.544 |
| `CN(Cc1ccsc1)C(=O)c1n[nH]c(N)c1-c1ccccc1` | 11.7 | -0.2465 | -1.456 |
| `COCC(C)(C)NS(=O)(=O)C1CS(=O)(=O)c2ccccc21` (configuration not stated) | -47.4 | 3.218 | - |
| `Cc1cc(C)n(C2CCCN(C(=O)Cc3cccs3)C2)n1` (configuration not stated) | -19.88 | -0.855 | 0.7874 |
| `CN(C)[C@@H]1CN(C(=O)COc2cccc(F)c2)C[C@H]1O` | 6.639 | 3.635 | 9.709 |
| `Cn1cc(C2CCCN2C(=O)CCCc2ccccn2)cn1` (configuration not stated) | -257.3 | 0.1186 | 7.653 |
| `CSCCCN1CCCC(Cn2ccnc2)C1` (configuration not stated) | -28.18 | 15.05 | 9.287 |
| `Cc1nc(-c2ccsc2)ccc1C(=O)NCCCN1CCOCC1` | -4.205 | 0 | 3.676 |
| `C1CCCN(c2nc(C3CC3)ns2)CC1` | -16.4 | -2.909 | -8.742 |
| `CCCn1nccc1-c1cc(C2CCN(S(C)(=O)=O)CC2)nc(C)n1` | 8.97 | 0.4862 | 3.09 |
| `CS(=O)(=O)Nc1ccn(Cc2ccc(Cl)cc2)n1` | -4.039 | -2.799 | -0.4619 |
| `COc1ccc(CN2CCO[C@H]3CN(C(=O)C4CC4)CC[C@H]3C2=O)cc1` | -35.91 | 3.45 | 1.691 |
| `C=C(C)COc1cccc(C(=O)N(CC)Cc2noc(C)n2)c1` | 14.66 | 6.084 | -5.366 |
| `CC(C)(C)n1nnnc1CN(Cc1ccccc1)Cc1ccccc1Cl` | 35.16 | 1.419 | 10.02 |
| `CC(CN1CCOC1=O)NC(=O)c1cccc(C#N)c1` (configuration not stated) | 8.738 | 9.218 | 0.5834 |
| `O=C(C1CCCC1)N1CCC(c2ncc3c(n2)CCNC3)C1` (configuration not stated) | -2.203 | -0.2054 | 0.3717 |
| `CN(Cc1ccc(Cl)c(F)c1)C(=O)c1ccncc1F` | -12.45 | 2.066 | -6.237 |
| `CCOc1c(F)cccc1C(=O)N(CC)C(C)c1ccncc1` (configuration not stated) | - | 0.8878 | -0.7782 |
| `O=C(c1ccsc1)N1C[C@@H]2CCN(C(=O)c3cccc(F)c3)[C@@H]2C1` | -30.56 | 1.652 | 8.142 |
| `O=C(O)c1ccn(-c2ccccc2NS(=O)(=O)c2cccc(Cl)c2F)n1` | 19.57 | 8.76 | 9.091 |
| `c1cnc(-c2nn3c(CN4CCCCC4)nnc3s2)cn1` | -5.316 | 0.1448 | 2.54 |
| `Cc1ccc(S(=O)(=O)c2ncccc2CN2CCN(CCO)CC2)cc1` | -32.75 | 5.843 | -0.2525 |
| `Cc1ccsc1C(O)CNC(=O)Cc1ccc(S(=O)(=O)C(C)C)cc1` (configuration not stated) | -13.4 | 2.675 | 3.065 |
| `CC(C)Cc1ncc(CNc2cnccc2CO)s1` | -7.511 | 4.628 | 3.388 |
| `CCc1nsc(N2CCCN(CC(=O)N(C)C3CC3)CC2)n1` | -0.9337 | 3.708 | 4.906 |
| `CCC(C)N(Cc1cccnc1)Cc1ccccc1Cn1cccn1` (configuration not stated) | -27.9 | 1.291 | 5.242 |
| `CC(C)c1nccn1C(C)C(=O)N1CCN(c2ccccc2Cl)CC1` (configuration not stated) | -7.096 | -2.161 | 6.707 |
| `CCc1ccc(NC(=O)c2ncc(C(N)=O)cc2Cl)cc1F` | 21.95 | 2.685 | 4.738 |
| `COCCNC(=O)CN(C)CCn1nc2ccccn2c1=O` | -2.78 | 2.811 | 5.331 |

3 of the entries, repeated:

For O=C(C1CCCC1)N1CCOc2cccc(F)c21 the result was A: -7.715%; B: 3.043%; C: -12.35%.
For CCC1c2ccccc2CCN1CCCS(C)(=O)=O (configuration not stated) the result was A: -10.75%; B: -1.342%; C: 1.401%.
For Cc1ccc(CNc2cc(C(=O)N3CCOCC3)nc(C)n2)cc1 the result was A: -5.12%; B: 8.941%; C: 8.84%.

Measurements from “University of Dundee, Small-Polar-MMV Screening Library” (2021), ChEMBL document CHEMBL3988442.